Measurements as given in PMC7764601 (Molecules, 2020).

Key:
mice [1] = assay type: in vivo; conditions: ED50 of the writhing test (Table 3) relative to LD50 i.p.
Experimental: The experiments were carried out on male albino Swiss mice (body weight 18–26 g). All of the animals were housed at constant humidity (60%) and temperature (25 °C) and kept on a 12 h light/dark cycle. Animals were fed a standard pellet diet with free access to tap water. All procedures were conducted according to Animal Care and Use Committee guidelines, and approved by the Ethical Committee of Jagiellonian University, Kraków.
Control and experimental groups consisted of 6–8 animals each. The investigated compounds were administered intraperitoneally as a suspension in 0.5% methylcellulose in a constant volume of 10 mL/kg.

mice [2] = conditions: intraperitoneal; cited from earlier work

CN1CC[C@]23c4c5ccc(O)c4O[C@H]2[C@@H](O)C=C[C@H]3[C@H]1C5 [Morphine, reference compound]
analgesic ED50 as fraction of LD50 (mice [1]): 1/57 | LD50 (mice [2]): 140.0 mg/kg
